{"sequences": {"note": "The chains behind the UniProt entries cited, without tags or fusion partners.", "UniProt Q16877": "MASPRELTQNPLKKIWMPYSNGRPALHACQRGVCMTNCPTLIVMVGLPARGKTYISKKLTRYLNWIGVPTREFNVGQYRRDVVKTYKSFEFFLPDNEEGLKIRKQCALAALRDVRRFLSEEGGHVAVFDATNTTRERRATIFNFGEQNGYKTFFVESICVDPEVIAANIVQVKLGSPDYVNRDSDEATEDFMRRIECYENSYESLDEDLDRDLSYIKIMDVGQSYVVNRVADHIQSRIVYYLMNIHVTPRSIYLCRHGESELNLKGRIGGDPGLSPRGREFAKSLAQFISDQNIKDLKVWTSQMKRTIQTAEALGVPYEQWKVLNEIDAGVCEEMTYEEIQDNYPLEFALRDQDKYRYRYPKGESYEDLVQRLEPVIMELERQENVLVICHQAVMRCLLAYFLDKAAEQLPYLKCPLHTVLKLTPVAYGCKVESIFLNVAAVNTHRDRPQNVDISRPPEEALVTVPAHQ"}, "source": "paper PMC10182982", "target": "T1, Flag-HA-FBXL7 (UniProt Q9UJT9)", "T1 sequence": "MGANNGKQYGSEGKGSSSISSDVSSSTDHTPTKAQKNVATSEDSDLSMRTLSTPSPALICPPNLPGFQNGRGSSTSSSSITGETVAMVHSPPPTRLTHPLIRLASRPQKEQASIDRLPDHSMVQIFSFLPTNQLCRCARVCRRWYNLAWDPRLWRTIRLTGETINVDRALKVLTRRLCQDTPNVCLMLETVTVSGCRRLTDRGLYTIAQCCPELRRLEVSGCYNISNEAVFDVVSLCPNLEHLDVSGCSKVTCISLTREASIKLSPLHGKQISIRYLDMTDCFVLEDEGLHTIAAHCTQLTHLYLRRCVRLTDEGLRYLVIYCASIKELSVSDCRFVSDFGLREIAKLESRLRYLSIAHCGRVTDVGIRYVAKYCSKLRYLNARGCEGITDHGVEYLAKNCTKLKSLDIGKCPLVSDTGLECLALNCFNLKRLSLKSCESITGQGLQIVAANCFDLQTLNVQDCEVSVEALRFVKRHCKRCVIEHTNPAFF", "assay": "affinity purification with mass spectrometry; tandem affinity purification of Flag-HA-FBXL7 from transfected 293T cells (RIPA lysate): anti-Flag agarose, 3xFlag peptide elution, anti-HA agarose, SDS-PAGE, LC-MS", "note": "These are yes or no findings as the source states them, for the method shown. In cells and extracts the contact can be indirect. These calls come from enrichment with a bait or labelling near it, and not all partners need be listed. Sequences can lack the tags named with a protein.", "data": [{"substance": "6-phosphofructo-2-kinase/fructose-2,6-biphosphatase 4 (PFKFB4), endogenous (from UniProt Q16877 1-469)", "values": [{"measurement": "binding", "value": "binds"}]}]}
